# ± gives the standard deviation. Some of the results follow. Many of these values have a large error.
# Tested on: EfPiwi piRISC loaded with L1MC piRNA (26 nt)
# Test: pre-steady-state target cleavage rate (min^-1); guide: L1MC piRNA 5'p-UAACUAAAUACUAUGCAAGCUGUAGG; MIWI and MILI are mouse PIWI proteins and EfPiwi is from a freshwater sponge; tags in brackets are library labels; higher = faster piRNA-guided slicing of the target
# Settings: auxiliary factor: 500 nM Ephydatia muelleri Gtsf1
# Method in brief: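 The method was Cleave-'n-Seq, in which uncleaved targets from a transcribed, DNA-blocked target RNA library were sequenced after exposure to active affinity-purified piRISC carrying one synthetic guide, with or without GTSF1 partner protein. Reactions contained 0.1 nM library, 1 nM piRISC and, where present, 500 nM GTSF1 in HEPES–potassium acetate buffer at 33 °C for 0–8 or 0–960 min. Reads were normalised to depth and to weakly complementary targets, three trials were pooled, and k3 was capped at 0.0001 min^-1. The pre-steady-state cleavage rate came from a burst-and-steady-state fit.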
row,Sequence,pre-steady-state target cleavage rate
1,UCCUGGAUGUCCUUGCAUUGUAUUUAGUUA,0.00202 ± 0.0029
2,UCCUGGAACAGCAUGCAUAGUAUUUAGAAA,0.00167 ± 0.0021
3,UCCUGCUACACCUUGCAUAGUAAUUAGUUA,0.00647 ± 0.0028
4,UCCUGGAUGUGCUUGCAUCGUAUUUAGUUA,0.00598 ± 0.0028
5,UCCUGGAUCUCCUUGCAUAGUAUUUAGUAA,0.00383 ± 0.0026
6,UCCUGGAACAGCUUGCAUAGUAUUGAGUUA,0.00624 ± 0.0022
7,UCCUGGUACAGGUUGCAUAGUUUUUAGUUA,0.00104 ± 0.016
8,UCCUGGAAUAGCUUGCAUAGUAUUUAGUUA,0.0137 ± 0.0037
9,UCCUGGUACAGCUUGGAAAGUAUUUAGUUA,0.00224 ± 0.004
10,UCCUGGAUCAGCUAGGAUAGUAUUUAGUUA,0.00257 ± 0.002
11,UCCUGGAUCAGCUUGCUUAGUAUUAAGUUA,0.00376 ± 0.0025
12,UCCUGGAUGUGCAUGCAUAGUAUUUAGUAA,0.00151 ± 0.0042
13,UCCUGGAUGUCGUUGGAUAGUAUUUAGUAA,0.000148 ± 0.05
14,UCCUGGAUGUCGAACCAUACUAAUUAGUUA,< 0.0001
15,UCCUCCAUCAGCUUGCAUAGUAUUUAGUUA,0.0155 ± 0.005
16,UCCUCCUUGUGCUUGCAUAGUAUUUAGUAA,0.00675 ± 0.0029
17,UCCUGGAUCAACUUGCAUAGUAUUUAGUUA,0.0635 ± 0.018
18,UCCUCCUACAGCUUGCAUAGUAUUUCGUUA,0.00416 ± 0.0023

# Taken from the entries so far (two entries):
row,Sequence,pre-steady-state target cleavage rate
14,UCCUGGAUGUCGAACCAUACUAAUUAGUUA,< 0.0001
15,UCCUCCAUCAGCUUGCAUAGUAUUUAGUUA,0.0155 ± 0.005

# The list goes on.

row,Sequence,pre-steady-state target cleavage rate
1,UCCUGGAUGAGCAUGCAUUGUAUUUAGUUA,0.00289 ± 0.0022
2,UCCUGCUACAGCUUGCAUAGUAUUUAUGUUA,0.00419 ± 0.0019
3,UCCUGGAUCAGCUAGCAUAGAAUUUAGUUA,0.00118 ± 0.0027
4,UCCUGGAUGUGCUUGGAUAGUAUAUAGUUA,0.000414 ± 0.01
5,UCCUCCUAGCAGCUUGCAUAGUAUUUAGUUA,0.0339 ± 0.0083
6,UCCUGGAUCAGCUUCAUAGUAUUUAGUUA,0.00789 ± 0.0033
7,UCCUCCUACAACUUGCAUAGUAUUUAGUUA,0.0806 ± 0.024
8,UCCUGCUACAGCUUGCUUAGUAUUUACUUA,0.00194 ± 0.0036
9,UCCUGGAUGUGCUUGCCUAGUAUUUAGUUA,0.00934 ± 0.0027
10,UCCUGGAACAGCUUGAUAGUAUUUAGUUA,0.00225 ± 0.0042
11,UCCUGGAUGUCGAACGUAUGUUUUUUGUUA,0.000297 ± 0.018
12,UCCUGGAACAGCUUGCCUAGUAUUUAGUUA,0.0399 ± 0.013
13,UCCUGGAUGUCCUUGCCUAGUAUUUAGUUA,0.00345 ± 0.002
14,UCCUGGAUCACCUUGCAUAGUAUUAAGUUA,0.00509 ± 0.0039
15,UCCUGGAUGUCGAACGUAAGUAUUAAGAUA,0.000203 ± 0.024
16,UCCUGCUACAGCUAGCAAAGUAUUUAGUUA,0.0328 ± 0.0098
17,UCCUGCUACAGCAUGCAUAGUUUUUAGUUA,0.00363 ± 0.0018
18,UCCUGGUACAGCUUGCAUAGUAUUUAGUA,0.00657 ± 0.0033

# Same assay, conditions: auxiliary factor: none (no Gtsf1)
row,Sequence,pre-steady-state target cleavage rate
1,UCCUGGAACAGCUUGUCAUAGUAUUUAGUUA,0.00277 ± 0.0045
2,UCCUGGAACAGCUUGCAUAGUAUCUUAGUUA,0.00177 ± 0.006
3,UCCUGGAACAGCCUUGCAUAGUAUUUAGUUA,0.000943 ± 0.01
4,UCCUGGAUGAGCUUGCAUAGUAAUUUAGUUA,0.00116 ± 0.013

# Reference: the supplement of paper PMC10338343
